# Reference: PMC7819943, “Rice protein-binding microarrays: a tool to detect cis-acting elements near promoter regions in rice”
# Amino acid sequences for entries named in this document (tags omitted).
# UniProt Q0JBA9, entry or part of it: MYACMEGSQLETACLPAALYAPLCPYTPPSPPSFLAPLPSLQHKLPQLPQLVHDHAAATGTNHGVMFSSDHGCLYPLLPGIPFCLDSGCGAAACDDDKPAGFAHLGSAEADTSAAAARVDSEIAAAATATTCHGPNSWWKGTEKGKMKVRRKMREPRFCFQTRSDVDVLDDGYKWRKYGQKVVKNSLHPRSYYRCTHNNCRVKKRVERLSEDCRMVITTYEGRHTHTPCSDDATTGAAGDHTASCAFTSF
# Some of the results follow.
# Molecular target: OsWRKY34 (Oryza sativa, UniProt Q0JBA9 1-250)
# Assay: protein-binding microarray (RPBM); PBS, 2% BSA, 51.3 ng/ul salmon testes DNA, 50 uM zinc acetate, 200 nM TF, 25 C, 1 h; high values mean tight binding
# Conditions: protein: recombinant; tags: N-terminal polyhistidine and DsRed monomer fusion (pET32a); label: CyDye5-dUTP incorporated in the synthesized complementary strand; 3' TTTTT single-stranded linker to array surface; dsDNA, one strand shown
# In short: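 Binding signal here means per-feature fluorescence intensity in arbitrary units. The values were read on an Axon 4000B scanner after a custom Agilent array, double-stranded by primer extension with Cy5-dUTP, was incubated with 200 nM protein at 25 °C for 1 h in PBS with 2% BSA, salmon testes DNA and 50 µM zinc acetate, then washed. The proteins were transcription factors with an N-terminal polyhistidine tag and DsRed, expressed in E. coli BL21-CodonPlus and purified on Ni–NTA.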
row,Sequence,binding signal
1,TCTCCAACCACGCACCTTTGCCTAAATGTTGCCAATAAAACGGAGTCACCTAGTGCAG,8240 fluorescence intensity (a.u.)
2,TGTCACCACGTCCGCAACTATTCTCCTGCCATCAGTGCACCGGAGTCACCTAGTGCAG,8130 fluorescence intensity (a.u.)
3,CCTTCTTTCTCTTTCATTCTCTCTGTACTGTACGTACGTTCGGAGTCACCTAGTGCAG,9760 fluorescence intensity (a.u.)
4,TTTGGTGTTTTCTGCTGGTATATTAGTTATGTTTGGAGTACGGAGTCACCTAGTGCAG,11600 fluorescence intensity (a.u.)
5,ACACGATTGCTCACCCTATTCGCCGCCGCCGCCGCCGCCGCGGAGTCACCTAGTGCAG,8130 fluorescence intensity (a.u.)
6,GTGTGCATGATTTTGTCGTTTGTTTTATGCATGCTGCGTTCGGAGTCACCTAGTGCAG,8230 fluorescence intensity (a.u.)
7,ACCAGGATGGATCTACTGTAAGCACCAGTTGACCGCATTTCGGAGTCACCTAGTGCAG,8400 fluorescence intensity (a.u.)
8,GGGATGGGGAAGGTCAGAGCCAATATGATCTGGTAACTCTCGGAGTCACCTAGTGCAG,9510 fluorescence intensity (a.u.)
9,ATGATCCTTTTTTACCTTTATACAGTATGTTCAGTCCAAACGGAGTCACCTAGTGCAG,8980 fluorescence intensity (a.u.)
10,CCAATTGTCGTTTCCGCACGTACATCCTGCATGGCAAAGGCGGAGTCACCTAGTGCAG,8740 fluorescence intensity (a.u.)
11,CCTCACAAGTCACAAGTCACAAACCATCATCTTCACTAGTCGGAGTCACCTAGTGCAG,8300 fluorescence intensity (a.u.)
12,CTTCATCACCTGTTGCTTGATACTTGTTCCTTCGCAGTATCGGAGTCACCTAGTGCAG,9560 fluorescence intensity (a.u.)
13,TATGTTCCTTTTATCTAAGTATGCATTAATAATAGGTCTACGGAGTCACCTAGTGCAG,8080 fluorescence intensity (a.u.)
14,CCCACTCGCTCTCTCTCACTCTCGCCGCGGCTTAAAGCGCCGGAGTCACCTAGTGCAG,8680 fluorescence intensity (a.u.)
15,GGGTGGAGATGTAAATCTGGTGAAATTGGAGGGGCTCCTTCGGAGTCACCTAGTGCAG,9040 fluorescence intensity (a.u.)
16,GGAGGAGGGGTGGGGTGTTGAGCCCTGGAGAAGCCACCGCCGGAGTCACCTAGTGCAG,21000 fluorescence intensity (a.u.)
17,TCTCGCATGATATTCACTGTTTTTTTTATGTTACCAAACACGGAGTCACCTAGTGCAG,11100 fluorescence intensity (a.u.)
18,GGAAGGGGCATGCAGAGGAGCAGGAGATTCAGTTTGAAGCCGGAGTCACCTAGTGCAG,8210 fluorescence intensity (a.u.)
19,TCTGATGTCTGTGTTTTTTTTTCTTTAGCCAGCGTTACATCGGAGTCACCTAGTGCAG,8420 fluorescence intensity (a.u.)
20,AACGCACGGGTATTTTTTTCTAGTCTACTTAATAATTATTCGGAGTCACCTAGTGCAG,9180 fluorescence intensity (a.u.)
21,CCCTATAAATACATGCCCAAGCTGCTCACATTCTCATCATCGGAGTCACCTAGTGCAG,9400 fluorescence intensity (a.u.)
22,GTGCATGAGCCAACTTCCGGTGTATATATATATATATATACGGAGTCACCTAGTGCAG,8510 fluorescence intensity (a.u.)
23,TTCACCACACAGTTCGTCGATTTTTTTTCAGCAATCTTTCCGGAGTCACCTAGTGCAG,11300 fluorescence intensity (a.u.)

# 2 consecutive records out of the list so far, for reference:
row,Sequence,binding signal
13,TATGTTCCTTTTATCTAAGTATGCATTAATAATAGGTCTACGGAGTCACCTAGTGCAG,8080 fluorescence intensity (a.u.)
14,CCCACTCGCTCTCTCTCACTCTCGCCGCGGCTTAAAGCGCCGGAGTCACCTAGTGCAG,8680 fluorescence intensity (a.u.)
